According to the supplement of paper PMC4604168 (melanoma cell lines):
Some of the results follow. Many values rest on one well or one pass, so single values are uncertain.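 Cells were imaged in 1,536-well plates, and nuclei stained with an antibody against cleaved PARP were counted against all DNA-stained nuclei to give the apoptosis fraction. Screening doses were chosen to leave most cells alive, and resting and induced cleaved-PARP levels differ strongly between cell lines.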

System: WM3526
Assay: cleaved PARP positive nuclei fraction relative to DMSO control; melanoma cells; higher = more apoptosis
Details: library dose: low library concentration; 72 h

SMILES | cleaved PARP positive nuclei fraction [%]
Nc1nc(F)nc2c1ncn2[C@@H]1O[C@H](CO)[C@@H](O)[C@@H]1O [fludarabine] + CO[C@@H]1[C@H](N(C)C(=O)c2ccccc2)C[C@H]2O[C@]1(C)n1c3ccccc3c3c4c(c5c6ccccc6n2c5c31)C(=O)NC4 [Midostaurin] (first compound 0.2 µM, partner dose 0.08 µM) | 256
Nc1ncn([C@H]2C[C@H](O)[C@@H](CO)O2)c(=O)n1 [decitabine] + O=C(O)c1ccc(-c2c[nH]c3ncc(-c4ccccc4)cc23)cc1C1CCCC1 [GSK650394] (first compound 0.1 µM, partner dose 0.16 µM) | 60.7
CN1CCN(c2ccc3nc(-c4c(N)c5c(F)cccc5[nH]c4=O)[nH]c3c2)CC1 [Dovitinib] + Oc1cc(-c2nc(-c3ccccc3)[nH]c2-c2ccncc2)ccc1Cl [L779450] (first compound 0.1 µM, partner dose 0.2 µM) | 89.4
CS(=O)(=O)CCNCc1ccc(-c2ccc3ncnc(Nc4ccc(OCc5cccc(F)c5)c(Cl)c4)c3c2)o1 [lapatinib] + O=S(=O)(c1ccccc1)N(CC(F)(F)F)c1ccc(C(O)(C(F)(F)F)C(F)(F)F)cc1 [T0901317] (first compound 0.8 µM, partner dose 1.4 µM) | 79.9
CNC(=O)c1cc(Oc2ccc(NC(=O)Nc3ccc(Cl)c(C(F)(F)F)c3)cc2)ccn1 [sorafenib] + O=C(O)c1ccc(-c2c[nH]c3ncc(-c4ccccc4)cc23)cc1C1CCCC1 [GSK650394] (first compound 0.4 µM, partner dose 0.16 µM) | 107
CC(C)C[C@H](NC(=O)[C@H](Cc1ccccc1)NC(=O)c1cnccn1)B(O)O [Bortezomib] + NC(=O)Nc1cc(-c2cccc(F)c2)sc1C(=O)N[C@H]1CCCNC1 [AZD7762] (first compound 0.001 µM, partner dose 0.02 µM) | 64.1
Nc1nc(F)nc2c1ncn2[C@@H]1O[C@H](CO)[C@@H](O)[C@@H]1O [fludarabine] + NCC(=O)Nc1ccc(-n2nc(C(F)(F)F)cc2-c2ccc3c(ccc4ccccc43)c2)cc1 [OSU03012] (first compound 0.2 µM, partner dose 1 µM) | 177
CC(C)C[C@H](NC(=O)[C@H](Cc1ccccc1)NC(=O)c1cnccn1)B(O)O [Bortezomib] + COc1cc2c(Oc3ccc4[nH]c(C)cc4c3F)ncnc2cc1OCCCN1CCCC1 [cediranib] (first compound 0.001 µM, partner dose 0.4 µM) | 272
CC(C)C[C@H](NC(=O)[C@H](Cc1ccccc1)NC(=O)c1cnccn1)B(O)O [Bortezomib] + C[C@@H]1CCN(C(=O)CC#N)C[C@@H]1N(C)c1ncnc2[nH]ccc12 [CP690550] (first compound 0.001 µM, partner dose 1 µM) | 56.9
Nc1ccn([C@@H]2O[C@H](CO)[C@@H](O)C2(F)F)c(=O)n1 [gemcitabine] + C=CCn1c(=O)c2cnc(Nc3ccc(N4CCN(C)CC4)cc3)nc2n1-c1cccc(C(C)(C)O)n1 [MK1775] (first compound 0.0004 µM, partner dose 0.02 µM) | 405
CNC(=O)c1cc(Oc2ccc(NC(=O)Nc3ccc(Cl)c(C(F)(F)F)c3)cc2)ccn1 [sorafenib] + COc1cc2c(Oc3ccc4[nH]c(C)cc4c3F)ncnc2cc1OCCCN1CCCC1 [cediranib] (first compound 0.4 µM, partner dose 0.4 µM) | 15.9
CNC(=O)c1cc(Oc2ccc(NC(=O)Nc3ccc(Cl)c(C(F)(F)F)c3)cc2)ccn1 [sorafenib] + Cc1ccc(NC(=O)c2cccc(N(C)C)c2)cc1NC(=O)c1ccc(O)cc1 [ZM336372] (first compound 0.4 µM, partner dose 2 µM) | 74.4
C[C@@H](Oc1cc(-c2cnn(C3CCNCC3)c2)cnc1N)c1c(Cl)ccc(F)c1Cl [Crizotinib] + CCN(CC)CCCCNc1ncc2cc(-c3cc(OC)cc(OC)c3)c(NC(=O)NC(C)(C)C)nc2n1 [PD173074] (first compound 0.2 µM, partner dose 0.1 µM) | 74.5
Nc1ncn([C@H]2C[C@H](O)[C@@H](CO)O2)c(=O)n1 [decitabine] + O=c1cc(-c2cccc3c2Sc2ccccc2S3)oc(N2CCOCC2)c1 [KU55933] (first compound 0.1 µM, partner dose 1 µM) | 55.2
O=C(O)c1ccc2c(c1)nc(Nc1cccc(Cl)c1)c1ccncc12 + O=C(O)c1ccc(-c2c[nH]c3ncc(-c4ccccc4)cc23)cc1C1CCCC1 [GSK650394] (first compound 0.4 µM, partner dose 0.16 µM) | 130
Cc1cc(Nc2cc(N3CCN(C)CC3)nc(/C=C/c3ccccc3)n2)n[nH]1 + C=CCn1c(=O)c2cnc(Nc3ccc(N4CCN(C)CC4)cc3)nc2n1-c1cccc(C(C)(C)O)n1 [MK1775] (first compound 0.04 µM, partner dose 0.02 µM) | 66
Nc1ccn([C@@H]2O[C@H](CO)[C@@H](O)C2(F)F)c(=O)n1 [gemcitabine] + O=C(Nc1cccc(Cl)c1)Nc1ncc(CCNc2ncnc3ccsc23)s1 [SNS314] (first compound 0.0004 µM, partner dose 0.0008 µM) | 67.6
C[C@@H](Oc1cc(-c2cnn(C3CCNCC3)c2)cnc1N)c1c(Cl)ccc(F)c1Cl [Crizotinib] + CO[C@@H]1[C@H](N(C)C(=O)c2ccccc2)C[C@H]2O[C@]1(C)n1c3ccccc3c3c4c(c5c6ccccc6n2c5c31)C(=O)NC4 [Midostaurin] (first compound 0.2 µM, partner dose 0.08 µM) | 62.7
CC(C)C[C@H](NC(=O)[C@H](Cc1ccccc1)NC(=O)c1cnccn1)B(O)O [Bortezomib] + COc1ccc2c(c1)CCC1C2CCC2(C)C(NCCCCCCN3C(=O)C=CC3=O)CCC12 [U73122] (first compound 0.001 µM, partner dose 0.4 µM) | 40.1
Nc1ccn([C@@H]2O[C@H](CO)[C@@H](O)C2(F)F)c(=O)n1 [gemcitabine] + OCCn1cc(-c2cnc3nnn(Cc4ccc5ncccc5c4)c3n2)cn1 [PF04217903] (first compound 0.0004 µM, partner dose 1 µM) | 69.9
CNC(=O)c1cc(Oc2ccc(NC(=O)Nc3ccc(Cl)c(C(F)(F)F)c3)cc2)ccn1 [sorafenib] + CO[C@@H]1[C@H](N(C)C(=O)c2ccccc2)C[C@H]2O[C@]1(C)n1c3ccccc3c3c4c(c5c6ccccc6n2c5c31)C(=O)NC4 [Midostaurin] (first compound 0.4 µM, partner dose 0.08 µM) | 61.4
O=C(O)[C@@H]1[O][Sb](=[O])([O][Sb]2(=[O])[O][C@H]([C@H](O)CO)[C@H](O)[C@H](C(=O)O)[O]2)[O][C@H]([C@H](O)CO)[C@@H]1O (some centres undefined) [stibogluconate] + Cc1ccc(NC(=O)c2cccc(N(C)C)c2)cc1NC(=O)c1ccc(O)cc1 [ZM336372] (first compound 2 µM, partner dose 2 µM) | 82.4
CN1CCN(c2ccc3nc(-c4c(N)c5c(F)cccc5[nH]c4=O)[nH]c3c2)CC1 [Dovitinib] + COc1cc2c(Oc3ccc4[nH]c(C)cc4c3F)ncnc2cc1OCCCN1CCCC1 [cediranib] (first compound 0.1 µM, partner dose 0.4 µM) | 87.6
CC(C)C[C@H](NC(=O)[C@H](Cc1ccccc1)NC(=O)c1cnccn1)B(O)O [Bortezomib] + CC(C)CCN1c2nc(Nc3cc(F)c(O)c(F)c3)ncc2N(C)C(=O)C1C [BID1870] (first compound 0.001 µM, partner dose 0.2 µM) | 45.6
O=C(O)c1ccc2c(c1)nc(Nc1cccc(Cl)c1)c1ccncc12 + NCC(=O)Nc1ccc(-n2nc(C(F)(F)F)cc2-c2ccc3c(ccc4ccccc43)c2)cc1 [OSU03012] (first compound 0.4 µM, partner dose 1 µM) | 116
Nc1ncn([C@H]2C[C@H](O)[C@@H](CO)O2)c(=O)n1 [decitabine] + Cn1cc(/C=C2\C(=O)Nc3cccnc32)c2ccccc21 [GW441756] (first compound 0.1 µM, partner dose 0.4 µM) | 339
CNC(=O)c1cc(Oc2ccc(NC(=O)Nc3ccc(Cl)c(C(F)(F)F)c3)cc2)ccn1 [sorafenib] + Oc1nc(-c2ccc(C(F)(F)F)cc2)nc2c1CSCC2 [XAV939] (first compound 0.4 µM, partner dose 2 µM) | 67
O=C(O)[C@@H]1[O][Sb](=[O])([O][Sb]2(=[O])[O][C@H]([C@H](O)CO)[C@H](O)[C@H](C(=O)O)[O]2)[O][C@H]([C@H](O)CO)[C@@H]1O (some centres undefined) [stibogluconate] + C=CCn1c(=O)c2cnc(Nc3ccc(N4CCN(C)CC4)cc3)nc2n1-c1cccc(C(C)(C)O)n1 [MK1775] (first compound 2 µM, partner dose 0.02 µM) | 21.8
CC(C)C[C@H](NC(=O)[C@H](Cc1ccccc1)NC(=O)c1cnccn1)B(O)O [Bortezomib] + O=c1cc(-c2cccc3c2Sc2ccccc2S3)oc(N2CCOCC2)c1 [KU55933] (first compound 0.001 µM, partner dose 1 µM) | 108

An excerpt of these results, with tabs.
SMILES	cleaved PARP positive nuclei fraction [%]
CN1CCN(c2ccc3nc(-c4c(N)c5c(F)cccc5[nH]c4=O)[nH]c3c2)CC1 [Dovitinib] + Oc1cc(-c2nc(-c3ccccc3)[nH]c2-c2ccncc2)ccc1Cl [L779450] (first compound 0.1 µM, partner dose 0.2 µM)	89.4
CS(=O)(=O)CCNCc1ccc(-c2ccc3ncnc(Nc4ccc(OCc5cccc(F)c5)c(Cl)c4)c3c2)o1 [lapatinib] + O=S(=O)(c1ccccc1)N(CC(F)(F)F)c1ccc(C(O)(C(F)(F)F)C(F)(F)F)cc1 [T0901317] (first compound 0.8 µM, partner dose 1.4 µM)	79.9
Nc1nc(F)nc2c1ncn2[C@@H]1O[C@H](CO)[C@@H](O)[C@@H]1O [fludarabine] + NCC(=O)Nc1ccc(-n2nc(C(F)(F)F)cc2-c2ccc3c(ccc4ccccc43)c2)cc1 [OSU03012] (first compound 0.2 µM, partner dose 1 µM)	177
CNC(=O)c1cc(Oc2ccc(NC(=O)Nc3ccc(Cl)c(C(F)(F)F)c3)cc2)ccn1 [sorafenib] + COc1cc2c(Oc3ccc4[nH]c(C)cc4c3F)ncnc2cc1OCCCN1CCCC1 [cediranib] (first compound 0.4 µM, partner dose 0.4 µM)	15.9
CNC(=O)c1cc(Oc2ccc(NC(=O)Nc3ccc(Cl)c(C(F)(F)F)c3)cc2)ccn1 [sorafenib] + Cc1ccc(NC(=O)c2cccc(N(C)C)c2)cc1NC(=O)c1ccc(O)cc1 [ZM336372] (first compound 0.4 µM, partner dose 2 µM)	74.4
C[C@@H](Oc1cc(-c2cnn(C3CCNCC3)c2)cnc1N)c1c(Cl)ccc(F)c1Cl [Crizotinib] + CCN(CC)CCCCNc1ncc2cc(-c3cc(OC)cc(OC)c3)c(NC(=O)NC(C)(C)C)nc2n1 [PD173074] (first compound 0.2 µM, partner dose 0.1 µM)	74.5
Nc1ccn([C@@H]2O[C@H](CO)[C@@H](O)C2(F)F)c(=O)n1 [gemcitabine] + O=C(Nc1cccc(Cl)c1)Nc1ncc(CCNc2ncnc3ccsc23)s1 [SNS314] (first compound 0.0004 µM, partner dose 0.0008 µM)	67.6
C[C@@H](Oc1cc(-c2cnn(C3CCNCC3)c2)cnc1N)c1c(Cl)ccc(F)c1Cl [Crizotinib] + CO[C@@H]1[C@H](N(C)C(=O)c2ccccc2)C[C@H]2O[C@]1(C)n1c3ccccc3c3c4c(c5c6ccccc6n2c5c31)C(=O)NC4 [Midostaurin] (first compound 0.2 µM, partner dose 0.08 µM)	62.7
O=C(O)[C@@H]1[O][Sb](=[O])([O][Sb]2(=[O])[O][C@H]([C@H](O)CO)[C@H](O)[C@H](C(=O)O)[O]2)[O][C@H]([C@H](O)CO)[C@@H]1O (some centres undefined) [stibogluconate] + C=CCn1c(=O)c2cnc(Nc3ccc(N4CCN(C)CC4)cc3)nc2n1-c1cccc(C(C)(C)O)n1 [MK1775] (first compound 2 µM, partner dose 0.02 µM)	21.8
